Reference: article PMC5400601
These are yes or no findings as the source states them, for the method shown. Binding seen in cells or lysates may run through a third protein. Some binding calls cover weakened binding; strength is not graded here.

Chains of the proteins cited; added tags and fusions are not shown.
UniProt Q92466: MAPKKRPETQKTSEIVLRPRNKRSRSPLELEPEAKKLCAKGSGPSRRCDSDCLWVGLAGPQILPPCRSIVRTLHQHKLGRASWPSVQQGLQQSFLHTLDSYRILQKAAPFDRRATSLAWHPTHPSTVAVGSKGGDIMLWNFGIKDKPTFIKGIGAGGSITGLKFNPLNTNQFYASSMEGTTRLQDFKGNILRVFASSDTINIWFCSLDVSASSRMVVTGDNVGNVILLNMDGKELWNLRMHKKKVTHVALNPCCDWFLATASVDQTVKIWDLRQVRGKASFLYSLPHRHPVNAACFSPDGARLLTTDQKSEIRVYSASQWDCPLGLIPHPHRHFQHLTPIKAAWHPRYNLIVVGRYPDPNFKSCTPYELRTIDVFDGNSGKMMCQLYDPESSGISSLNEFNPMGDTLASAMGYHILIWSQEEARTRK
UniProt P10275: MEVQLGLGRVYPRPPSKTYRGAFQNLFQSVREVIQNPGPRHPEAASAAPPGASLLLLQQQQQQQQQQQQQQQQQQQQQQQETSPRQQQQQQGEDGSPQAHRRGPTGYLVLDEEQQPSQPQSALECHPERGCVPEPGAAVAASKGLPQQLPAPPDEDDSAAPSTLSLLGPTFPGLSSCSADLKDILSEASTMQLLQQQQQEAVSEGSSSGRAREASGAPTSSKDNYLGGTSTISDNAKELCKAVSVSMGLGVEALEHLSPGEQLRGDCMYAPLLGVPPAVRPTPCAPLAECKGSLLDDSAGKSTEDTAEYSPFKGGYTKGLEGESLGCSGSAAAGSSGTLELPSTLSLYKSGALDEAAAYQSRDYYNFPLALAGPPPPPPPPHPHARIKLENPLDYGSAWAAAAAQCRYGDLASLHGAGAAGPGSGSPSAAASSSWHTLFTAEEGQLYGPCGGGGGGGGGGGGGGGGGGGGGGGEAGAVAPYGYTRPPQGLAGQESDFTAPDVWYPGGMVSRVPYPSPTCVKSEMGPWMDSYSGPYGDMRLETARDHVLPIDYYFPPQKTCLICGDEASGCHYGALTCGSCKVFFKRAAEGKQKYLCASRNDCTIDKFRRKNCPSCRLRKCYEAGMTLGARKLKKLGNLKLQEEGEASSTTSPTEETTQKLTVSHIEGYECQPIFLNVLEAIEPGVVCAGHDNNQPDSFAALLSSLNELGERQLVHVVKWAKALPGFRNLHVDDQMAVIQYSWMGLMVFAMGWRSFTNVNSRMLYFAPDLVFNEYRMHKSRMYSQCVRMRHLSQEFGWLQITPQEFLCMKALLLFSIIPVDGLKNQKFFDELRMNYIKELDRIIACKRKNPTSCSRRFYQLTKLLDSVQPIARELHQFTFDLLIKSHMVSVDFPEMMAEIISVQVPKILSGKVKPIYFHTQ

Tests used:
GST-DDB2 [1] = target: GST-DDB2 (UniProt Q92466); experiment: pull-down; in vitro competition: GST-DDB2 produced from bacteria incubated with AR protein and various amounts of NRIP, GST pull-down
GST-DDB2 [2] = target: GST-DDB2 (UniProt Q92466); experiment: pull-down; HA-AR-FL and HA-AR mutants incubated with GST-DDB2, GST pull-down, western blotting
HA-AR-FL = HA-AR-FL (UniProt P10275); experiment: co-IP; competition: 293T cells (legend; text: LNCaP) cotransfected with AR or HA-AR, Myc-DDB2 and FLAG-NRIP (increasing amounts) or FLAG-NRIP-DM; immunoprecipitation with anti-AR antibodies 48 h after transfection, western blotting
AR = AR (UniProt P10275); experiment: as above

AR protein (from UniProt P10275 1-920) (receptor)
binding (GST-DDB2 [1]): binds

HA-AR-FL (from UniProt P10275 1-920) (receptor)
binding (GST-DDB2 [2]): binds

Myc-tagged DDB2 (from UniProt Q92466 1-427)
binding (HA-AR-FL): binds
binding (AR): binds
